Data as given in PubChem BioAssay AID504774 (Drosophila RNAi Screening Center, 2011).
Aim: 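Genes required for cells to withstand methyl methanesulphonate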 (primary screen). Cells: Drosophila Kc167 cells. Reagents: long dsRNA against Drosophila genes, about 0.25 µg dsRNA per well. Time to read-out: about 6 days: 3 days knock-down, then 3 days with or without MMS. Treatment: methyl methanesulphonate 0.004% (w/v) for 3 days after knock-down. Read-out: 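Viability in wells given MMS, read as ATP luminescence, normalised by quantiles plate by plate and averaged across replicates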. Scale: mean viability with MMS and viability with MMS: higher = more surviving cells after MMS.
The deposit covers about 23,000 reagents; this is a random part of those with a known target gene and a result. 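Values are quantile-normalised luminescence on an arbitrary scale; higher means more cells surviving MMS.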 Names joined by + are all predicted targets of the reagent. Not all columns of the deposit are shown.

| target | amplicon | mean viability with MMS | viability with MMS, replicate 1 |
| --- | --- | --- | --- |
| bel | DRSC16555 | 3.71e6 | 4.31e6 |
| CG14257 | DRSC14752 | 3.57e6 | 4.11e6 |
| Mal-A4 | DRSC07236 | 3.58e6 | 3.98e6 |
| CG7101 | DRSC20023 | 3.63e6 | 4.10e6 |
| CG7101 | DRSC22845 | 3.57e6 | 4.06e6 |
| eIF2Balpha | DRSC16332 | 3.47e6 | 3.97e6 |
| CG7714 | DRSC16300 | 3.49e6 | 3.87e6 |
| CG5191 | DRSC15733 | 3.66e6 | 4.07e6 |
| CG5191 | DRSC15734 | 3.56e6 | 4.03e6 |
| CG5191 | DRSC21559 | 3.49e6 | 3.97e6 |
| Ubi-p63E | DRSC22016 | 3.70e6 | 4.17e6 |
| CG15130 | DRSC02430 | 3.56e6 | 4.07e6 |
| pug | DRSC17036 | 3.52e6 | 4.00e6 |
| PVRAP | DRSC09966 | 3.30e6 | 3.68e6 |
| PVRAP | DRSC10577 | 3.58e6 | 3.99e6 |
| Pfk | DRSC07506 | 3.76e6 | 4.29e6 |
| His3.3A | DRSC03343 | 2.77e6 | 3.28e6 |
| Smyd5 | DRSC15483 | 3.48e6 | 4.17e6 |
| sano | DRSC06165 | 3.79e6 | 4.44e6 |
| wls | DRSC10605 | 3.63e6 | 4.19e6 |
| CG15005 | DRSC08459 | 3.64e6 | 4.10e6 |
| Sema1b | DRSC07550 | 3.71e6 | 4.21e6 |
| fabp + sea | DRSC16114 | 3.39e6 | 3.85e6 |
| fabp + sea | DRSC16115 | 3.53e6 | 4.04e6 |
| Syx18 | DRSC14628 | 3.55e6 | 4.09e6 |
| gcm | DRSC03536 | 3.52e6 | 4.05e6 |
| CG34265 | DRSC08030 | 3.45e6 | 4.02e6 |
| rig | DRSC06053 | 3.46e6 | 3.81e6 |
| rig | DRSC06400 | 3.51e6 | 3.95e6 |
| CG31174 | DRSC13518 | 3.57e6 | 4.12e6 |
| CG34382 | DRSC08999 | 3.63e6 | 4.14e6 |
| CG34382 | DRSC10166 | 3.56e6 | 4.05e6 |
| CG34382 | DRSC10167 | 3.51e6 | 3.93e6 |
| Syt12 | DRSC19359 | 3.61e6 | 4.09e6 |
| CNBP | DRSC04116 | 3.58e6 | 3.89e6 |
| CNBP | DRSC04419 | 3.85e6 | 4.24e6 |
| CNBP | DRSC21317 | 3.43e6 | 3.85e6 |
| CG5382 | DRSC15786 | 3.63e6 | 4.14e6 |
| CG14034 | DRSC02359 | 3.47e6 | 3.87e6 |
| pst | DRSC11003 | 3.59e6 | 3.99e6 |
| CG6685 | DRSC10695 | 3.71e6 | 4.07e6 |
| BtbVII | DRSC08151 | 3.27e6 | 3.65e6 |
| BtbVII | DRSC08415 | 3.45e6 | 3.99e6 |
| nol | DRSC21425 | 3.53e6 | 4.05e6 |
| Cdk8 | DRSC11113 | 3.41e6 | 3.87e6 |
| Gr59d | DRSC22553 | 3.89e6 | 4.08e6 |
| CG17786 | DRSC15270 | 3.69e6 | 4.26e6 |
| CG12159 | DRSC06114 | 3.59e6 | 4.13e6 |
| CG32235 | DRSC23257 | 3.56e6 | 4.00e6 |
| eIF2Bdelta | DRSC04058 | 3.57e6 | 3.97e6 |
| CG42824 + CG42823 | DRSC13230 | 3.48e6 | 4.06e6 |
| Lectin-galC1 | DRSC03362 | 3.41e6 | 3.77e6 |
| CG16995 | DRSC00480 | 3.61e6 | 4.11e6 |
| CG7715 | DRSC16301 | 3.59e6 | 4.09e6 |
| Art8 | DRSC02530 | 3.70e6 | 4.13e6 |
| Cisd2 | DRSC14904 | 3.64e6 | 4.07e6 |
| CG33062 | DRSC22195 | 3.53e6 | 3.98e6 |
| PTP-ER | DRSC04636 | 3.60e6 | 3.91e6 |
| PTP-ER | DRSC23325 | 3.44e6 | 3.81e6 |
| scat | DRSC02722 | 3.73e6 | 4.24e6 |
| Noc3 | DRSC12535 | 3.41e6 | 3.90e6 |
| CG31091 | DRSC15933 | 3.62e6 | 4.05e6 |
| AstCC | DRSC02404 | 3.55e6 | 3.88e6 |
| Eaat1 | DRSC03321 | 3.70e6 | 4.12e6 |
| gol | DRSC04689 | 3.57e6 | 4.11e6 |
| robo3 | DRSC00374 | 3.57e6 | 4.02e6 |
| robo3 | DRSC00375 | 3.24e6 | 3.62e6 |
| robo3 | DRSC00684 | 3.51e6 | 4.01e6 |
| Elp4 | DRSC02999 | 2.94e6 | 3.35e6 |
| C3G | DRSC17745 | 3.69e6 | 4.03e6 |
| C3G | DRSC17929 | 3.91e6 | 4.63e6 |
| C3G | DRSC22329 | 3.60e6 | 4.04e6 |
| C3G | DRSC23077 | 3.53e6 | 3.92e6 |
| CG12895 | DRSC06210 | 3.53e6 | 4.02e6 |
| Obp18a | DRSC19736 | 3.56e6 | 3.97e6 |
| nAChRbeta1 | DRSC08097 | 3.58e6 | 4.12e6 |
| nAChRbeta1 | DRSC08728 | 3.53e6 | 3.95e6 |
| CG4781 | DRSC04488 | 3.45e6 | 3.66e6 |
| CG5070 | DRSC19932 | 3.46e6 | 3.89e6 |
| dmpd | DRSC06092 | 3.66e6 | 4.13e6 |
| Ibf1 | DRSC16419 | 3.39e6 | 3.83e6 |
| Prosalpha3 | DRSC04644 | 3.27e6 | 3.75e6 |
| pzg | DRSC11848 | 3.14e6 | 3.65e6 |
| Ir94b | DRSC21439 | 3.51e6 | 3.94e6 |
| CadN2 + CG42830 | DRSC03062 | 3.64e6 | 4.05e6 |
| CadN2 + CG42830 | DRSC03063 | 3.59e6 | 3.97e6 |
| CadN2 + CG42830 | DRSC03064 | 3.58e6 | 3.99e6 |
